# According to publication PMC9776721:
# Sequences of proteins named here, by UniProt entry; tags and fusion partners are left off.
# UniProt P00519: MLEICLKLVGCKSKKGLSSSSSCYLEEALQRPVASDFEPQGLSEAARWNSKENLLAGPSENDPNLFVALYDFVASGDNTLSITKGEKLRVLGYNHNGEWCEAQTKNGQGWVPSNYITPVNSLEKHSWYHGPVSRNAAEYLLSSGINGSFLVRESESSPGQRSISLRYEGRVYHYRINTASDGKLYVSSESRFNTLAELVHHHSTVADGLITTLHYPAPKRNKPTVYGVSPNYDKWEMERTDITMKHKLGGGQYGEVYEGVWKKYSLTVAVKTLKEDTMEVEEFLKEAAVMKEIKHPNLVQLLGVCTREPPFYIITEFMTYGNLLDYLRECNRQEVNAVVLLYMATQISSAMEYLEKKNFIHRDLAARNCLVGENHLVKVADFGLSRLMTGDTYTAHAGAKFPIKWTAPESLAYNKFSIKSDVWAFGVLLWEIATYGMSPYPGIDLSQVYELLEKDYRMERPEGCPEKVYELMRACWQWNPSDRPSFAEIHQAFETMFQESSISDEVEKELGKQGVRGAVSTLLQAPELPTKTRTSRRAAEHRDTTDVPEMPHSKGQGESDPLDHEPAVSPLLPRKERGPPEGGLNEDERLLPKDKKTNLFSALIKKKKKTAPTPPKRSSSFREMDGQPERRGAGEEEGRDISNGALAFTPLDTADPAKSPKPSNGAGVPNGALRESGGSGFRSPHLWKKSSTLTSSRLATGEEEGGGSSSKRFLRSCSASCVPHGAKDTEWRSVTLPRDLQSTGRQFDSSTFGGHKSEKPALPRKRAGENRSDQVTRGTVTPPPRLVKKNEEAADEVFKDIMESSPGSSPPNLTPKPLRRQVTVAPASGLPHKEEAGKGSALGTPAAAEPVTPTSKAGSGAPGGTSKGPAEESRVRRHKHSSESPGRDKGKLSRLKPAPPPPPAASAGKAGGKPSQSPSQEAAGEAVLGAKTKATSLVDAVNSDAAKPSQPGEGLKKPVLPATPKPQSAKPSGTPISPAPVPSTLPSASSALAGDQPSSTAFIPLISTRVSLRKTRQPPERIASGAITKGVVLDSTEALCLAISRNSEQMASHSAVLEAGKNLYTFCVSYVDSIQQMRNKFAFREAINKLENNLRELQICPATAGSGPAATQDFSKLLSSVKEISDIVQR
# These are yes or no findings as the source states them, for the method shown. Binding seen in cells or lysates may run through a third protein. Some entries that bind do so weakly or less than the wild type.
# Target: Flag-tagged c-Abl (UniProt P00519)
# Experiment: co-IP; SH-SY5Y cells co-transfected with Flag-c-Abl and EGFP-TDP-43; cell extracts 24 h after transfection, anti-Flag (M2) antibody at 4 °C, protein G-agarose beads overnight, washed five times with lysis buffer, immunoblotting
substance,measurement,value
EGFP-tagged TDP-43 (from UniProt Q13148-1 1-414),binding,binds
